# In PubChem BioAssay AID504842 (National Center for Advancing Translational Sciences (NCATS), 2011):
# In all, about 330,000 compounds went through this assay and about 100 (0.03%) were called active. The shares of active, inactive and inconclusive entries below differ from those in the screen. The call rests on the fitted dose curve; in most records, active means well fitted inhibition curve with a large enough effect; inconclusive means small, poorly fitted or top-dose-only effect; inactive means flat fitted curve, though single readings scatter. Where the call is inconclusive, the potency comes from a doubtful curve fit.
# Test system: Chaperonin Mm-Cpn (Methanococcus maripaludis)
# Experiment: Inhibitors of TCP-1 ring complex (TRiC) of Methanococcus maripaludis (MmCpn): qHTS; further: nearly all actives have a fitted effect of over 80% in size;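 on potency: enzyme at 25 nM with ATP substrate at 10 µM during the reaction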
# Details: purified Mm-Cpn ATPase, ADP Transcreener TR-FRET; activity, negative = inhibition: at the top concentration
# How it was run: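 Purified archaeal chaperonin (25 nM final) was preincubated with compound for 10 min at 37°C, then ATP (10 uM final) was added for 30 min at 37°C in Tris pH 7.4/KCl/MgCl2/DTT buffer. ADP was quantified by HTRF Transcreener TR-FRET.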
# On the % scale 0 is the no-effect control and ±100 the full control effect; potency means the concentration at half of the fitted maximal effect.
SMILES,"activity, negative = inhibition",Potency
O=C1OC(c2ccccc2)/C(=C(/O)c2ccccc2)C1=O (stereo unspecified),inactive: -0.76%,–
C=C1c2cccc(O)c2C(=O)C2C(=O)[C@]3(O)C(=O)C(C(N)=O)C(=O)[C@@H](N(C)C)[C@@H]3[C@@H](O)[C@H]12 (stereo partly specified),–,"inconclusive: 398 µM [inhibitor, partial curve, poor fit]"
C=CCn1c(C2CC(=O)N(c3ccc(C)cc3)C2)nc2ccccc21 (stereo unspecified),–,"inconclusive: 15.8 µM [inhibitor, single point]"
Cc1ccc(C)c(N2CCN(C(=O)CCCOc3cc(=O)n(C)c4ccccc34)CC2)c1,–,"inconclusive: 89.1 µM [inhibitor, single point]"
CCOC(=O)C1=C(CSc2nc(-c3ccccc3)ccc2C#N)OC(N)=C(C#N)C1c1ccccc1 (stereo unspecified),–,"inconclusive: 100 µM [inhibitor, single point]"
COc1cc(OC)c(NC(=O)c2ccc(F)cc2)cc1Cl,–,"inconclusive: 31.6 µM [inhibitor, partial curve, poor fit]"
O=C(CCS(=O)(=O)c1ccccc1Cl)Nc1ccc(S(=O)(=O)Nc2ncccn2)cc1,–,"inconclusive: 14.1 µM [inhibitor, single point]"
COc1ccc2c(c1)c(=O)oc1c(C)c(OC(C)C(=O)NCC3CCC(C(=O)O)CC3)ccc12 (stereo unspecified),–,"inconclusive: 355 µM [inhibitor, partial curve, poor fit]"
O=S(=O)(Cc1c(F)cccc1Cl)c1ncn[nH]1,inactive: 2.98%,–
COc1cc2ccccc2cc1C(=O)N1CCc2ccccc21,inactive: -0.684%,–
Cc1c(NS(=O)(=O)c2cc(C(=O)NCc3ccco3)cc(Cl)c2Cl)c(=O)n(-c2ccccc2)n1C,–,"inconclusive: 100 µM [inhibitor, single point]"
CC1CCN(C(C(=O)Nc2ccc3c(c2)OCO3)c2ccccc2)CC1 (stereo unspecified),inactive: 0.445%,–
Cc1ccnc(-n2c(C)cc(/C=N/NC(=O)COc3cccc4cccnc34)c2C)c1,inactive: -0.474%,–
O=C(CSc1nc2c(c(C(F)(F)F)n1)CCc1ccccc1-2)NCc1ccc(F)cc1,–,"inconclusive: 28.2 µM [inhibitor, single point]"
COc1ccccc1NS(=O)(=O)c1cc(NC(=O)C(C)C)ccc1N1CCCCC1,inactive: 2.33%,–
Cn1c(=NC(=O)c2cnccn2)sc2ccccc21,–,"inconclusive: 100 µM [inhibitor, single point]"
COC(=O)c1c(NC(=O)c2ccco2)sc(C(=O)N2CCCC2)c1C,–,"inconclusive: 70.8 µM [inhibitor, single point]"
N#Cc1ccccc1-c1csc(N2CCC(C(N)=O)CC2)n1,inactive: -3.18%,–
CCOC(=O)c1cccc(NC(=O)CN(c2ccc(C)cc2)S(=O)(=O)c2c(C)noc2C)c1,–,"inconclusive: 20 µM [inhibitor, single point]"
COc1ccccc1-c1n[nH]c(=S)o1,–,"inconclusive: 112 µM [inhibitor, partial curve, poor fit]"
Cc1ccsc1CN(C)CC(=O)Nc1ccc([N+](=O)[O-])cc1Cl,inactive: 0.681%,–
CC(=O)Nc1ccc(-c2csc(Nc3ncccn3)n2)cc1,inactive: -3.25%,–
Cc1cc(-c2ccccc2)c2c(=O)n(-c3ccccc3)[nH]c2n1,inactive: -4.06%,–

SMILES,"activity, negative = inhibition",Potency
COc1cccc(OCC(O)CN2CC(C)CC(C)C2)c1 (stereo unspecified),–,"inconclusive: 15.8 µM [inhibitor, single point]"
CNS(=O)(=O)c1ccc(N=Cc2c(C)[nH]n(-c3ccc(C)cc3C)c2=O)cc1,–,"inconclusive: 15.8 µM [inhibitor, single point]"
O=C(NCc1ccco1)Nc1cccs1,–,"inconclusive: 316 µM [inhibitor, partial curve, poor fit]"
COc1ccc(OC)c(NC(=O)c2cccc(N3C(=O)C4C5C=CC(C6CC56)C4C3=O)c2)c1 (stereo unspecified),inactive: 0.221%,–
CCOc1ccc(NC(=O)c2cnccn2)cc1,inactive: 2.19%,–
CCC1(C)Cc2c(c(=O)n(-c3ccccc3)c3ncnc(N)c23)CO1 (stereo unspecified),inactive: -7.1%,–
O=C(COc1ccccc1-c1ccccc1)N/N=C/c1ccc2ccccc2c1,inactive: -2%,–
CCC(C)Oc1nc2c(c(=O)n(C)c(=O)n2C)n1C (stereo unspecified),–,"inconclusive: 14.1 µM [inhibitor, single point]"
Cc1cc(C)cc(NC(=O)CN2CCC(NC(=O)Cc3ccccc3)CC2)c1,–,"inconclusive: 89.1 µM [inhibitor, single point]"
Cc1c(-n2c(SCC(=O)NC(C)C(C)C)nc3ccccc3c2=O)c(=O)n(-c2ccccc2)n1C (stereo unspecified),–,"inconclusive: 14.1 µM [inhibitor, single point]"
CC1=NN(C(=O)c2c(Br)c(C)nn2C)C(O)(C(F)(F)F)C1 (stereo unspecified),inactive: -3.4%,–
N#Cc1cccc(S(=O)(=O)NCCOc2ccccc2F)c1,inactive: -0.792%,–
O=C(O)CCCCCn1c(O)c(C=C2N=c3ccccc3=N2)sc1=S,inactive: -1.51%,–
COc1ccc(C2=NCC(CSc3nccc(=O)[nH]3)S2)cc1 (stereo unspecified),–,"inconclusive: 100 µM [inhibitor, single point]"
Cc1c(C(=O)NNC(=O)c2csc(N3CCOCC3)n2)oc2ccccc12,–,"inconclusive: 89.1 µM [inhibitor, single point]"
Cc1ccc(NC(=S)/C(=C(\[O-])c2ccc(C)c([N+](=O)[O-])c2)[n+]2ccccc2)cc1C,–,"inconclusive: 89.1 µM [inhibitor, single point]"
CC(C)(C)c1ccc(C(=O)NCCC(=O)N2CCC3(CC2)NCCc2[nH]cnc23)cc1,–,"inconclusive: 89.1 µM [inhibitor, single point]"
COC(=O)c1ccc(COc2ccc3c(C)c(C)c(=O)oc3c2C)o1,inactive: 0.499%,–
Cc1occc1-c1nnc(SCC(=O)NCCc2ccccc2)o1,inactive: -2.13%,–
Cc1cccc(C)c1NC(=O)CNC(=O)C1CCCN(C(=O)c2ccc(Cl)cc2)C1 (stereo unspecified),–,"inconclusive: 5.62 µM [inhibitor, single point]"
Cc1noc(C)c1COC(=O)c1cc2c3ccccc3n(C)c2s1,–,"inconclusive: 25.1 µM [inhibitor, single point]"
CCN(Cc1ccccc1)S(=O)(=O)c1ccc2c(c1)NC(=O)CS2,inactive: -2.27%,–
COC(=O)c1c(-c2ccc(OC)cc2)sc2cc3c(cc12)OCO3,–,active: 50.1 µM

# An excerpt from above in order of count of non-hydrogen atoms, rising.
SMILES,"activity, negative = inhibition",Potency
COC(=O)c1ccc(COc2ccc3c(C)c(C)c(=O)oc3c2C)o1,inactive: 0.499%,–
Cc1cccc(C)c1NC(=O)CNC(=O)C1CCCN(C(=O)c2ccc(Cl)cc2)C1 (stereo unspecified),–,"inconclusive: 5.62 µM [inhibitor, single point]"
CC(C)(C)c1ccc(C(=O)NCCC(=O)N2CCC3(CC2)NCCc2[nH]cnc23)cc1,–,"inconclusive: 89.1 µM [inhibitor, single point]"
